Source: PMC4410016 (Cell reports, 2015)

How the values were obtained:
MtrF [1] = molecular target: MtrF (Neisseria gonorrhoeae, UniProt Q9RNX2, W420A); test: biochemical
MtrF [2] = molecular target: MtrF (Neisseria gonorrhoeae, UniProt Q9RNX2); test: isothermal titration calorimetry; assay type: binding

Which results are given for `Nc1ccc(S(N)(=O)=O)cc1` [sulfanilamide]?
Kd (MtrF [1]): 6.8 ± 1.49 µM; Kd (MtrF [2]): 1.14 ± 0.01 µM
